Experimental data taken from PubChem BioAssay AID1745846 (National Center for Advancing Translational Sciences (NCATS), 2022).
Screen size: about 1,400 compounds; about 30 (2%) were called active. Inconclusive results (about 15%) are left out. Calls follow the shape of the dose curve; as a rule, active = well fitted inhibition curve with a large enough effect; inconclusive = small, poorly fitted or top-dose-only effect; inactive = flat fitted curve, though single readings scatter. The list shows a part of the results.

Assay: Firefly Luciferase Counterscreen for Inhibitors of ATXN expression
Conditions: luminescence; series mostly up to 57.5 µM; activity change, negative = inhibition: at the top concentration
In short: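 Recombinant firefly luciferase at 10 nM final in 50 mM Tris pH 7.5, 10 mM MgCl2, 0.05% BSA, 0.01% Tween20 with substrate; compounds up to 57 uM final, 10 min room temperature, end-point luminescence. Buffer-only wells define 100% inhibition.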
% is scaled to controls: 0 for no effect and ±100 for the full control effect; potency is read from the fitted curve at half-maximal effect.

Row | SMILES | activity change, negative = inhibition | Potency
1 | FC(F)(F)c1nc(-c2cccs2)ncc1-c1nnnn1-c1ccc(Cl)cc1 | inactive: -3.04% | –
2 | C=CCc1cccc(/C=N/NC(=O)CNc2ccccc2OC)c1O | inactive: -5.48% | –
3 | Oc1ccc(C2CNCc3sccc32)cc1O (centres undefined) | inactive: -13.3% | –
4 | NNc1ncnc2sc3c(c12)CCC3 | inactive: -1.71% | –
5 | Cc1ccc(C(=O)COC(=O)c2ccc3c(c2)C(=O)N(c2cccc4ncccc24)C3=O)cc1 | inactive: -15.1% | –
6 | C=CCn1cnc2c(c1=O)c1nc3ccccc3nc1n2/N=C/c1cc(OC)c(OC)c(OC)c1 | inactive: -1.89% | –
7 | NNc1nc(N)c2c(n1)-c1ccccc1CC21CCCC1 | inactive: 0.0887% | –
8 | CCn1c(COc2ccccc2C)nnc1SCC(=O)N1CCN(c2ccccc2)CC1 | inactive: -2.47% | –
9 | Cc1cccn2c(=O)c(/C=C(\C#N)C(N)=O)c(N3CCN(c4cccc(Cl)c4)CC3)nc12 | inactive: 0.85% | –
10 | COc1cccc(Nc2nc(C(N)CCc3ccccc3)cs2)n1 (centres undefined) | inactive: 4.9% | –
11 | COc1cc(Br)cc(/C=N/NC(=O)Cc2ccc(C(F)(F)F)cc2[N+](=O)[O-])c1O | inactive: -1.33% | –
12 | O=C(CNC(=O)c1ccccc1)N/N=C/c1cc(Br)ccc1O | inactive: -0.948% | –
13 | O=C(N/N=C\c1cccnc1)c1cc(-c2ccccc2)nc2c(Cl)cccc12 | inactive: -13.5% | –
14 | Cn1c(SCC(=O)N/N=C/c2ccc([N+](=O)[O-])s2)nnc1-c1ccccc1 | inactive: -6.84% | –
15 | CC[C@]12c3[nH]c4ccc(Cl)cc4c3CCN1C(=O)[C@@H](CC(=O)NCC13CC4CC(CC(C4)C1)C3)C[C@@H]2C(=O)N1CCN(C(=O)C2CC2)CC1 | inactive: 1.42% | –
16 | Cc1nc(C(F)(F)F)c(C(=O)N/N=C(\N)c2ccccn2)s1 | inactive: -2.72% | –
17 | Cc1ccccc1C(=O)N1CCN(c2ccc(NC(=O)c3ccco3)cc2Cl)CC1 | inactive: -0.668% | –
18 | Cc1ccc(C(C)C)c(OCc2ccc(C(=O)N/N=C/c3ccc(O)cc3O)cc2)c1 | inactive: -15.1% | –
19 | O=C(N/N=C/c1cc([N+](=O)[O-])ccc1O)c1c[nH]c2ccccc12 | inactive: -4.35% | –
20 | Cc1cccc(N(CC(O)CON=C2c3ccccc3-c3ccccc32)S(C)(=O)=O)c1 (centres undefined) | inactive: -7.18% | –
21 | Cc1nc2c(OCc3cccc(Cl)c3)cccn2c1N(C)Cc1cccs1 | inactive: -9.31% | –
22 | O=C(C1CCCCC1)N1CCN(c2ccnc3cc(Cl)ccc23)CC1 | inactive: 1.61% | –
23 | COc1ccc(/C=C/C(=O)Nc2cccc(F)c2)cc1S(=O)(=O)N1CCOCC1 | inactive: -7.77% | –
24 | O=C1c2cc(Cl)ccc2-c2c(O)cc(Cl)cc21 | inactive: -11.7% | –
25 | CCN(CC)S(=O)(=O)c1cc(NC(=O)C2CCN(c3ncnc4sc(C)c(C)c34)CC2)ccc1Cl | inactive: 4.54% | –

Two entries from above, tab-delimited:
Row	SMILES	activity change, negative = inhibition	Potency
10	COc1cccc(Nc2nc(C(N)CCc3ccccc3)cs2)n1 (centres undefined)	inactive: 4.9%	–
13	O=C(N/N=C\c1cccnc1)c1cc(-c2ccccc2)nc2c(Cl)cccc12	inactive: -13.5%	–

(more compounds)

Row | SMILES | activity change, negative = inhibition | Potency
26 | Cc1cc(Oc2ccc(Cl)cc2)nc(-c2ccccn2)n1 | inactive: 1.53% | –
27 | NS(=O)(=O)c1ccc(N2N=C(c3ccc(Br)cc3)CC2c2ccc(F)cc2)cc1 (centres undefined) | inactive: -2.5% | –
28 | CCOc1cc(/C=N\NC(=O)c2ccc(NC(=O)CC)cc2)ccc1OC(=O)c1ccccc1 | inactive: 2.07% | –
29 | C/C(=C\C(=O)c1ccc(Br)cc1)NNC(=O)c1ccc(O)cc1 | inactive: 2.14% | –
30 | Cc1nnc(N/N=C/c2ccccn2)[nH]c1=O | inactive: -3.48% | –
31 | CN(C)CCC(c1ccc(Br)cc1)c1ccccn1 (centres undefined) | inactive: 4.51% | –
32 | Fc1ccc2[nH]c3c(N4CCc5ccccc5C4)ncnc3c2c1 | inactive: -4.07% | –
33 | S=C(Nc1cc(Cl)ccc1Oc1ccccc1)N1CCN(c2ccccn2)CC1 | inactive: -1.6% | –
34 | Cc1ccc(S(=O)(=O)/C(=C/Cl)NC(=O)c2ccccc2)cc1 | inactive: 2.33% | –
35 | CN(C)CCNc1ncnc2c1ncn2[C@H]1CN(Cc2ccc(-c3ccccc3)cc2)C[C@@H](CO)O1 | inactive: -0.281% | –
36 | CC1=CC(C)(C)Nc2ccc(OC(=O)CN3C(=O)c4cccc5cccc(c45)C3=O)cc21 | inactive: -3.93% | –
37 | O=c1nc(N/N=C/c2ccccn2)cn[nH]1 | inactive: -1.23% | –
38 | Cc1nnc(SC(C)C(=O)Nc2ccc(Cl)cn2)n1Cc1ccccc1 (centres undefined) | inactive: -1.28% | –
39 | CCc1ccc(-c2csc(NC(=O)C3CC(=O)N(c4ccc5c(c4)OCCO5)C3)n2)cc1 (centres undefined) | inactive: -16.1% | –
40 | CN(C)c1ccc(NC(=O)Nc2nc(C(N)C3CCCCC3)cs2)cc1 (centres undefined) | inactive: -7.26% | –
41 | COc1cc(OC)cc(-c2cc3nc(C)c(CCC(=O)O)c(C)n3n2)c1 | – | active: 12.6 µM
42 | CN(C)CCCN(C(=O)c1ccc2c(c1)CCCC2)c1nc2cc3c(cc2s1)OCO3 | inactive: 0.029% | –
43 | CC(C)CC(NC(=O)c1ccc(Cl)cc1)C(=O)OCC(=O)c1ccc2c(c1)NC(=O)CO2 (centres undefined) | inactive: -4.97% | –
44 | COc1ccc(C(=O)NC(=S)NNC(=O)c2c(-c3ccccc3)noc2C)cc1OC | inactive: -9.76% | –
45 | Cc1cc(Cl)c(C(=O)Nc2cccc(C(F)(F)F)c2)c(C)n1 | inactive: 0.27% | –
46 | CCn1nc(C(=O)Nc2ccccc2N2CCCC2)c2ccccc2c1=O | inactive: -0.973% | –
47 | O=C(N/N=C/c1cc([N+](=O)[O-])ccc1O)c1ccc(COc2ccc3c(c2)CCC3)o1 | inactive: -5.38% | –
48 | O=C(Nc1ccc2oc(=O)ccc2c1)c1ccc(-c2cccc(Cl)c2)o1 | inactive: 1.78% | –
49 | Cc1cc(SCC(=O)N/N=C/c2ccc(O)cc2O)c(C)cc1Br | inactive: -11.7% | –
